The campaign covered roughly 320,000 compounds. About 2,100 (0.66%) were called active. Inconclusive means that the source gave no clear call. Such entries were picked first, then a sample of the others. Calls come from the whole dose curve; as a rule, active = well fitted inhibition curve with a large enough effect in the signal ratio, with a control signal flat (not every such curve was filed as active); inconclusive = small, poorly fitted or top-dose-only effect, or effect the other way, or a change in a side signal; inactive = flat fitted curve, though single readings scatter; the % refers to the signal ratio. Potencies of inconclusive entries are doubtful fits and often do not repeat.
Test: qHTS Assay for Lipid Storage Modulators in Drosophila S3 Cells
Details: BODIPY lipid droplet fluorescence, 18-24 h, cells fed with added oleic acid; lipid storage change, negative = inhibition: at 46.1 µM (top of the series) unless noted
Summary of the method: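 Drosophila S3 cells loaded with oleic acid (400 uM, as added) and compounds at several concentrations; lipid droplets imaged by 488-nm laser-scanning cytometry, 500–530 nm intensity and object ratio to cell channel. Percent activity normalized to 20 uM Triacsin C.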
% is set by controls: 0 for no effect and ±100 for the full control effect; potency is the fitted concentration of half-maximal effect.

| Compound | lipid storage change, negative = inhibition | Potency | outcome |
| --- | --- | --- | --- |
| COC(=O)[C@H](C)NC(=O)Nc1cccc(C)c1 | inconclusive: 6.37% |  |  |
| NS(=O)(=O)c1ccc(NC(=O)CN2C(=O)c3ccccc3C2=O)cc1 | inconclusive: -4.28% |  |  |
| Cc1cc(C(=O)N/N=C2\CCCc3ccccc32)c(C)o1 | inconclusive: 4.54% |  |  |
| O=S(=O)(c1ccc2nc(-c3ccccc3)[nH]c2c1)N1CCN(c2cccc(Cl)c2)CC1 | inconclusive: 31.9% |  |  |
| O=S(=O)(c1ccccc1)c1nc(-c2ccco2)oc1Nc1ccccc1 | inconclusive: -86.7% |  |  |
| COc1ccc(NC(=O)CN(CC(=O)Nc2ccc(OC)cc2)C(C)(C)CO)cc1 | inconclusive: 50.2% |  |  |
| COc1ccc(-c2csc(NC3CCCCC3)n2)c(OC)c1 | inconclusive: 14.8% |  |  |
| Cc1cc(/C=N/n2cnnc2)c(C)n1-c1ccc(OCc2ccc(F)cc2)cc1 |  | inconclusive: 2.91 µM [falling, full curve] |  |
| O=C(Nc1cccc(Cl)c1)C1CCCCC1 | inconclusive: -5.45% |  |  |
| c1csc(-c2ccnc3ncnn23)c1 | inconclusive: -0.67% |  |  |
| Cc1cc(=O)n2nc(N3CCC(C(=O)NCCc4ccccc4)CC3)sc2n1 | inactive: 16.9% |  |  |
| O=C1c2cc(Cl)ccc2OC2(CCNCC2)C12CC(c1ccccc1)=NO2 (configuration not stated) | inactive: -6.62% |  |  |
| COc1ccc(N2CCN(CC(=O)Nc3nc4c(s3)CC(C)CC4)CC2)cc1 (configuration not stated) |  | inconclusive: 29.1 µM [activator, single point] |  |
| O=C(COc1ccc2ccccc2c1)Nc1ccc(S(=O)(=O)N2CCCCCC2)cc1 | inconclusive: -27.7% |  |  |
| CN(C)c1ccc(NC(=O)CSc2nc(C3CC3)nc3ccccc23)cc1 | inconclusive: -22.7% |  |  |
| Cc1ccc(-c2nnc(N3CCCCCC3)c3ccccc23)cc1 |  | inconclusive: 6.51 µM [falling, single point] |  |
| O=C(O)CCC(=O)Nc1ccc(C(=O)OC2CCCCC2)cc1 | inconclusive: -1.36% |  |  |
| CCOc1ccc(NC(=O)[C@@H](NC(=O)c2ccco2)C(C)C)cc1 |  |  | inactive [at 46.1 µM] |
| Cc1nc2ccc(NS(=O)(=O)c3c(F)cc(F)cc3Br)cc2s1 | inconclusive: 37.4% |  |  |
| Cc1ccc(S(=O)(=O)Nc2cc(=O)[nH]c(SCC(=O)Nc3cccc(C(F)(F)F)c3)n2)cc1 | inconclusive: -68.6% |  |  |
| CCOC(=O)N1CCC(Nc2c(NCCN3CCN(Cc4ccccc4)CC3)c(=O)c2=O)CC1 | inconclusive: -21.5% |  |  |
| C=C1C(C(=O)Nc2ccc(OCC)cc2)C1C(=O)Nc1ccc(OCC)cc1 (configuration not stated) | inconclusive: 11.2% |  |  |
| CC(C)CNC(=O)C(=O)Nc1cc2c3c(c1)CCC(=O)N3CCC2 |  |  | inactive [at 46.1 µM] |
| O=C1CN(C(=O)COC(=O)C2CC(=O)N(Cc3ccco3)C2)c2ccccc2N1 (configuration not stated) | inconclusive: -5.25% |  |  |
| CC(C)(C)NC(=O)COC(=O)c1ccccc1C(=O)c1ccccc1 | inconclusive: 23.9% |  |  |
| O=C(Nc1ccc2c(c1)OCO2)c1cnn2cccnc12 |  | inconclusive: 4.61 µM [activator, single point] |  |

| Compound | lipid storage change, negative = inhibition | Potency | outcome |
| --- | --- | --- | --- |
| COc1ccc(N2CCN(c3ncccc3C#N)CC2)cc1 |  | inconclusive: 0.0164 µM [activator, full curve, poor fit] |  |
| CC(C)N1C(=O)CCC1C(=O)O (configuration not stated) | inconclusive: 1.77% |  |  |
| CCCc1nc2oc(C(=O)OCC)c(N)c2c2c1COC(C)(C)C2 |  | inconclusive: 0.146 µM [activator, full curve] |  |
| Cc1cc(C(=O)CSC(C)c2nc3ccccc3c(=O)[nH]2)c(C)n1C (configuration not stated) | inconclusive: 20.8% |  |  |
| CC(=O)c1ccc(NC(=O)c2sc3nc4n(c(=O)c3c2C)CCCCC4)cc1 |  | inconclusive: 5.8 µM [falling, full curve] |  |
| O=C(Cn1ccc([N+](=O)[O-])n1)N1CCCCCC1 | inconclusive: -15.2% |  |  |
| COc1ccc(NC(=O)c2sc3nc(C)nc(N4CCOCC4)c3c2C)c(OC)c1 | inconclusive: 3.24% |  |  |
| COc1ccc(NC(=O)CSCc2ccccc2C)cc1 | inconclusive: -64.2% |  |  |
| Cc1ccc(NC(=O)c2ccc(NC(=O)C3CCCCC3C(=O)O)cc2)cc1 (configuration not stated) |  | inconclusive: 0.58 µM [activator, full curve] |  |
| CCc1ccc(-c2nnn(Cc3nc4ccccc4s3)n2)cc1 | inconclusive: 11.9% |  |  |
| C1CCN(c2nc3nonc3nc2N2CCCCC2)CC1 | inconclusive: -44% |  |  |
| N=c1n(CC(=O)c2ccc(Br)s2)c2ccccc2n1Cc1ccccc1 |  | inconclusive: 29.1 µM [cytotoxic, single point] |  |
| CC(C)Nc1nc(Oc2ccc(Cl)cc2Cl)cc(C(F)(F)F)n1 |  | inconclusive: 6.51 µM [activator, single point] |  |
| CCc1ccc(CNC(=O)c2ccc(NC(=O)C3=CSCCO3)cc2)cc1 |  | inconclusive: 6.51 µM [activator, single point] |  |
| CCCN1Cc2cccc(C(=O)NCCCOC(C)C)c2C1=O |  |  | inactive [at 46.1 µM] |
| CCCn1cc(CN2CCC(n3nccc3NC(=O)c3ccccc3)CC2)c(C)n1 | inconclusive: 7.09% |  |  |
| Clc1cccc(NCc2cn3cccnc3n2)c1 | inconclusive: 38% |  |  |
| CN1CCN(S(=O)(=O)c2ccccc2)CC1 |  | inconclusive: 16.4 µM [falling, single point] |  |
| CC(C)(C)c1csc(NC(=O)CCc2ccccc2)n1 | inconclusive: -60.3% |  |  |
| COc1ccc(C#Cc2c(C=O)n(C)c3ccccc23)cc1 |  | inconclusive: 0.0058 µM [falling, full curve, poor fit] |  |
| O=C(Nc1ccc(F)c(F)c1)c1cc(S(=O)(=O)N2CCN(c3ccccn3)CC2)ccc1F |  | inconclusive: 29.1 µM [activator, single point] |  |
| Oc1ccccc1C1=NCCNC(C(F)(F)C(F)F)=C1 |  | inconclusive: 0.0731 µM [falling, full curve, poor fit] |  |
| CCOc1cccc(C(=O)Nc2ccccc2C(=O)N2CCOCC2)c1 | inconclusive: -26.1% |  |  |
| COc1cc(C(=O)N2CCN(C)CC2)cc(OC)c1OC |  |  | inactive [at 46.1 µM] |
| CCOC(=O)CSc1ccc(S(=O)(=O)N(CC)CC)cc1[N+](=O)[O-] | inactive: 5.13% |  |  |
| CC/C(C)=N/Nc1nc2c(c(=O)[nH]c(=O)n2C)n1CCc1ccccc1 | inconclusive: 12.3% |  |  |

3 consecutive compounds from above, quoted:

| Compound | lipid storage change, negative = inhibition | Potency | outcome |
| --- | --- | --- | --- |
| CCOc1cccc(C(=O)Nc2ccccc2C(=O)N2CCOCC2)c1 | inconclusive: -26.1% |  |  |
| COc1cc(C(=O)N2CCN(C)CC2)cc(OC)c1OC |  |  | inactive [at 46.1 µM] |
| CCOC(=O)CSc1ccc(S(=O)(=O)N(CC)CC)cc1[N+](=O)[O-] | inactive: 5.13% |  |  |

Source: PubChem BioAssay AID2685 (National Center for Advancing Translational Sciences (NCATS), 2010)
